Results are given in words; binding and its absence hold for the method and conditions named. In cells and extracts the contact can be indirect. Some binding calls cover weakened binding; strength is not graded here. For part of these data: Tags and fused reporters may be left off the sequences shown. Values belong to the binder of their own block, whether it stands above or below them.
Assays:
[1] = molecular target: T1, Fas apoptotic inhibitory molecule 2 (Flag-FAIM2) (UniProt Q9BWQ8); experiment: co-IP; HEK293T cells transfected with the indicated plasmids; immunoprecipitation and western blot
T1 sequence: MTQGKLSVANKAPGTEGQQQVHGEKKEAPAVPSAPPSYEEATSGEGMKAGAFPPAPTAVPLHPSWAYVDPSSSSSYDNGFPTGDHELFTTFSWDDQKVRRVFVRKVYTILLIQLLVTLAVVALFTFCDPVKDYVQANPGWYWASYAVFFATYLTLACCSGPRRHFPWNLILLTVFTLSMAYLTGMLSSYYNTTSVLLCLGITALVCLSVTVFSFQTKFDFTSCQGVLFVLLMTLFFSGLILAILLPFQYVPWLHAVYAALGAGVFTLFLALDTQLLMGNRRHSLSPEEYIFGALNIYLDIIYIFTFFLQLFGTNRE

[2] = molecular target: T2, FAIM2 of the GST pulldown assay (UniProt Q9BWQ8); experiment: pull-down; GST pulldown assay and western blot, 'in HEK293T cells'; which partner carried GST not stated
T2 sequence: T1 sequence

[3] = molecular target: T3, FAIM2 in PAOA-treated hepatocytes (UniProt Q8K097); experiment: co-IP; PAOA-treated hepatocytes; immunoprecipitation and western blot
T3 sequence: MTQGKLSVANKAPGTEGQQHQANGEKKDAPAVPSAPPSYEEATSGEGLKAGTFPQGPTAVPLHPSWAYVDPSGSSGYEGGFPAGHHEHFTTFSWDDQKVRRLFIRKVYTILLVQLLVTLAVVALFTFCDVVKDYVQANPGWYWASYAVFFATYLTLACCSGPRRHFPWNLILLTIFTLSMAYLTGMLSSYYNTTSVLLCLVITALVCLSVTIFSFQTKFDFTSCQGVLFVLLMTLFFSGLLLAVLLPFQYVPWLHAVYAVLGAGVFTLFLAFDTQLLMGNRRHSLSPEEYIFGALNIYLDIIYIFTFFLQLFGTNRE

binding [1]: binds
B1: CREB-regulated transcription coactivator 2 (HA-CRTC2) (protein, UniProt Q53ET0 1-693)
chain: MATSGANGPGSATASASNPRKFSEKIALQKQRQAEETAAFEEVMMDIGSTRLQAQKLRLAYTRSSHYGGSLPNVNQIGSGLAEFQSPLHSPLDSSRSTRHHGLVERVQRDPRRMVSPLRRYTRHIDSSPYSPAYLSPPPESSWRRTMAWGNFPAEKGQLFRLPSALNRTSSDSALHTSVMNPSPQDTYPGPTPPSILPSRRGGILDGEMDPKVPAIEENLLDDKHLLKPWDAKKLSSSSSRPRSCEVPGINIFPSPDQPANVPVLPPAMNTGGSLPDLTNLHFPPPLPTPLDPEETAYPSLSGGNSTSNLTHTMTHLGISRGMGLGPGYDAPGLHSPLSHPSLQSSLSNPNLQASLSSPQPQLQGSHSHPSLPASSLARHVLPTTSLGHPSLSAPALSSSSSSSSTSSPVLGAPSYPASTPGASPHHRRVPLSPLSLLAGPADARRSQQQLPKQFSPTMSPTLSSITQGVPLDTSKLSTDQRLPPYPYSSPSLVLPTQPHTPKSLQQPGLPSQSCSVQSSGGQPPGRQSHYGTPYPPGPSGHGQQSYHRPMSDFNLGNLEQFSMESPSASLVLDPPGFSEGPGFLGGEGPMGGPQDPHTFNHQNLTHCSRHGSGPNIILTGDSSPGFSKEIAAALAGVPGFEVSAAGLELGLGLEDELRMEPLGLEGLNMLSDPCALLPDPAVEESFRSDRLQ

binding [2]: binds
B2: CRTC2 of the GST pulldown assay (protein, UniProt Q53ET0 1-693)
chain: B1 chain

binding [3]: binds
B3: CRTC2 in PAOA-treated hepatocytes (protein, UniProt Q3U182 1-692)
chain: MATSGANGPGSATASASNPRKFSEKIALQKQRQAEETAAFEEVMMDIGSTRLQAQKLRLAYTRSSHYGGSLPNVNQIGCGLAEFQSPLHSPLDSSRSTRHHGLVERVQRDARRMVSPLRRYPRHIDSSPYSPAYLSPPPESGWRRMMPWGNLPAEKGQLFRLPSALNRTSSDSALHTSVMNPNPQDTYPGPTPPSVLPSRRGGGFLDGEMDAKVPAIEENVVDDKHLLKPWDAKKLSSSSSRPRSCEVPGINIFPSPDQPANVPVLPPAMNTGGSLPDLTNLHFPPPLPTPLDPEETVYPSLSGGNSTTNLTHTMTHLGISGGLGLGPSYDVPGLHSPLSHPSLQSSLSNPNLQASLSSPQPQLQGSHSHPSLPASSLAHHALPTTSLGHPSLSAPALSSSSSSSSTSSPVLSAPPYPASTPGASPRHRRVPLSPLSLPAGPADARRSQQQLPKQFSPTMSPTLSSITQGVPLDTSKLPTDQRLPPYPYSPPSLVIPTHPPTPKSLQQLPSQACLVQPSGGQPPGRQPHYGALYPPGSSGHGQQPYHRPINDFSLGNLEQFNMESPSTSLVLDPPAFSEGPGFLGSEGSMSGPQDPHVLNHQNLTHCSRHGSGPNIILTGDSSPGFSKEIAAALAGVPGFEVSASGLELGLGLEDELRMEPLGLEGLTMLSDPCALLPDPAVEDSFRSDRLQ

Source: article PMC12586438
